# Patent US10000452B1, “Quinolone-based compounds, formulations, and uses thereof” (University of South Florida, priority 2016, dated 2018)
# Some of these results come from one statement about several compounds together.
# Test system: Pb-infected mice
# Experiment: in vivo efficacy scouting assay against blood stages
# Parameters: species or system P. berghei; mice
# Conditions: Example 2: two mice, single 50 mg/kg oral dose in PEG400 on day 1 PE
# Experimental: The screening involved a single oral 50 mg/kg dose 1 day post infection (PI) and an assessment of parasitemia on days 3 PI and 6 PI (Table 6).
# The screening was performed by treating two infected mice with a single 50 mg/kg oral dose of test compound suspended in PEG400 on day 1 postexposure (PE) followed by assessing parasitemia on days 3 and 6 PE.
smiles,measurement,value
"CCCCc1cc2c(=O)c(CC)c[nH]c2cc1OCCOc1ccccc1 [Compound 6ae, 6-Butyl-3-ethyl-7-(2-phenoxyethoxy)quinolin-4(1H)-one]",% inhibition on day 3 PE,> 65%
"COC(=O)c1c[nH]c2ccc(OCCCc3ccccc3)cc2c1=O [Compound 6g, Methyl 4-Oxo-6-(3-phenylpropoxy)-1,4-dihydroquinoline-3-carboxylate]",% inhibition on day 3 PE,> 65%
